# Taken from: PubChem BioAssay AID720505 (Drosophila RNAi Screening Center, 2013)
# Screen: 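Fly regulators or components of the CRAC channel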 (primary screen)
# Cell system: Drosophila S2R+ cells
# Reagent: long dsRNA against Drosophila genes
# Treatment: thapsigargin (2 µM) in calcium-free buffer to empty internal stores, then 2 mM calcium added back
# Detection: 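Stores emptied by 2 µM thapsigargin without calcium, then 2 mM calcium re-added; fluo-4 fluorescence followed by FLIPR in 384-well plates, per-well averaged endpoint, raw; two screen passes, some wells retested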
# Direction: calcium signal and retest calcium signal: higher = more calcium entry after store depletion
# Hit rule: 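About 1500 genes called as lowering calcium entry, by varying amounts, judged against per-plate control wells with STIM1 as positive and Rho1 as negative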
# Meaning of the calls: active = called as lowering calcium entry; inactive = not called
# In all, the deposit lists about 20,000 reagents; below is a random part of those with a known target gene and a result. In the full data, about 2,100 (10%) got an active call. 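Raw plate signals without normalisation; calls rest on control-based scores that were not deposited; replicate 2 separates called from uncalled poorly.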 Names joined by + are all predicted targets of the reagent. The record does not give: the amount of reagent, the time to read-out.
gene,dsRNA,"calcium signal, replicate 1","calcium signal, replicate 2","retest calcium signal, replicate 1","retest calcium signal, replicate 2",call
CG9662,DRSC00723,166,108,,,inactive
CG8839,DRSC07285,198,183,,,inactive
CG3045,DRSC04331,150,92.2,,,inactive
Drsl5 (Drosomycin-like 5),DRSC08159,80.6,130,,,inactive
Rpn9 (Regulatory particle non-ATPase 9),DRSC16840,216,309,,,inactive
ptc (patched),DRSC05117,48.8,86.9,,,active
ptc (patched),DRSC07669,129,201,,,inactive
Sox100B,DRSC15090,82.5,148,,,active
Sox100B,DRSC16866,181,122,,,inactive
Tehao,DRSC03449,103,174,,,inactive
Ibf2 (Insulator binding factor 2),DRSC16551,121,135,,,inactive
GstT3 (Glutathione S transferase T3),DRSC20541,168,111,,,inactive
Pstk + CG14210 + Tim9b,DRSC19566,73.1,228,,,active
CG15923,DRSC15129,146,278,,,inactive
NaCP60E (Na channel protein 60E),DRSC04307,67.7,77.2,,,active
NaCP60E (Na channel protein 60E),DRSC21351,142,112,,,inactive
dpr2 (defective proboscis extension response 2),DRSC02370,123,150,,,inactive
dpr2 (defective proboscis extension response 2),DRSC02371,129,148,,,inactive
Uggt (UDP-glucose-glycoprotein glucosyltransferase),DRSC11315,114,69.6,,,inactive
CG13185,DRSC06310,147,144,,,inactive
dgo (diego),DRSC06134,156,114,,,inactive
CG18596,DRSC15355,188,336,,,inactive
Trf2 (TATA box binding protein-related factor 2),DRSC18727,162,98.2,,,active
EMC1 (ER membrane protein complex subunit 1),DRSC15455,79.8,119,,,inactive
spdo (sanpodo),DRSC13988,,,,,active
atms (antimeros),DRSC12310,60.4,105,,,active
Acbp1 (Acyl-CoA binding protein 1),DRSC03093,156,176,,,inactive
Gr8a (Gustatory receptor 8a),DRSC18043,106,122,,,inactive
CG30065,DRSC05420,74,108,,,inactive
CG30357,DRSC22472,143,222,,,inactive
kat-60L1 (katanin p60-like 1),DRSC12184,148,113,,,inactive
nAChRalpha2 (nicotinic Acetylcholine Receptor alpha2),DRSC17009,194,202,,,inactive
Taf6 (TBP-associated factor 6),DRSC11299,62,93.1,,,active
HP1b (Heterochromatin Protein 1b),DRSC18418,104,95.4,,,inactive
Ts (Thymidylate synthase),DRSC00795,87.3,90.9,,,inactive
Ts (Thymidylate synthase),DRSC22168,100,257,,,inactive
CR31054 (pseudo),DRSC22134,97.6,172,,,inactive
CG10555,DRSC17748,227,133,,,inactive
CG10555,DRSC23202,114,153,,,inactive
CG5532,DRSC04509,60.9,92.7,,,inactive
Rcc1 (Regulator of chromosome condensation 1),DRSC09684,59.8,105,,,active
Ir51a (Ionotropic receptor 51a),DRSC06256,119,169,,,inactive
Prosbeta3 (Proteasome beta3 subunit),DRSC16801,86.2,97.4,,,active
TwdlV (TweedleV),DRSC12226,122,140,,,inactive
Gbp2 (Growth-blocking peptide 2),DRSC06069,114,130,,,inactive
CG40341 (retired record),DRSC01767,79.3,5631,,,inactive
CG40341 (retired record),DRSC03750,84,9898,,,inactive
RpS3 (Ribosomal protein S3),DRSC16838,130,78.2,,,active
CG15909,DRSC04977,139,169,,,inactive
Cpr49Ac (Cuticular protein 49Ac),DRSC07199,205,162,,,inactive
UbcE2H (Ubiquitin conjugating enzyme E2H),DRSC18221,82.6,74.1,,,inactive
CG6553,DRSC07002,114,178,,,inactive
Cyp6a23 (Cytochrome P450 6a23),DRSC07383,141,129,,,inactive
CG7492,DRSC10855,103,103,,,inactive
CG9483,DRSC03226,73.6,78.1,,,inactive
CG11741,DRSC14367,134,181,,,inactive
Atg4b (Autophagy-related 4b),DRSC15988,87.5,92.2,,,inactive
PGAP2 (Post-GPI attachment to proteins 2),DRSC00632,115,201,,,inactive
CG30281,DRSC04528,137,86.3,,,inactive
CG30096,DRSC21744,130,81.5,,,inactive
CG5024,DRSC15698,194,154,,,inactive
PVRAP (PVR adaptor protein),DRSC09966,82.4,68.7,,,inactive
PVRAP (PVR adaptor protein),DRSC10577,40.4,63.6,,,active
Cad89D (Cadherin 89D),DRSC15022,99,135,,,inactive
Esyt2 (Extended synaptotagmin-like protein 2),DRSC16082,224,192,,,inactive
qkr58E-1 (quaking related 58E-1),DRSC04709,175,93.9,,,inactive
Atac1 (Ada2a-containing complex component 1),DRSC03155,63.6,223,,,active
Mpcp2,DRSC11226,91.3,111,,,inactive
CG12115,DRSC17811,55.8,91.9,,,inactive
asRNA:CR43463 + Pgant35A,DRSC03557,101,86.7,108,141,inactive
CG2059,DRSC18203,240,90,,,inactive
CG6788,DRSC20007,101,110,,,inactive
MESK2 (Misexpression suppressor of KSR 2),DRSC04258,158,121,,,inactive
CG9525,DRSC03249,109,118,,,inactive
CG7326,DRSC20037,94.6,95.9,,,inactive
CG1835,DRSC20560,65.8,179,,,active
CG14356,DRSC14819,98.1,96,,,inactive
CG11110,DRSC06037,72,99.2,,,inactive
CG5644,DRSC10531,79.2,52.4,,,inactive
Dic3,DRSC06058,104,89.9,,,inactive
CG5539,DRSC04510,173,246,,,inactive
mei-W68 (meiotic W68),DRSC07649,175,134,,,inactive
Nse4 (Non-SMC element 4),DRSC02239,143,159,,,inactive

A few values from the entries so far:
Taf6 (TBP-associated factor 6) [DRSC11299], call: active
CG9662 [DRSC00723], call: inactive
CG15909 [DRSC04977], calcium signal, replicate 2: 169
Entry of CG5644 [DRSC10531] under “calcium signal, replicate 2”: 52.4
Entry for Atg4b (Autophagy-related 4b) [DRSC15988] under “calcium signal, replicate 2”: 92.2
Result of CG12115 [DRSC17811] under “calcium signal, replicate 1”: 55.8
